These are yes or no findings as the source states them, for the method shown. Some results given as binding are weak or reduced against the parent protein; the word gives no strength. For some assays here: Tags and fused reporters may be left off the sequences shown. Values belong to the binder of their own block, whether it stands above or below them.
Columns and labels:
[1] = molecular target: Recombinant canine IL23 (single chain p40 + linker + p19, Avitag, polyHis tag) (canine); test: Biacore affinity assay ('Active' = specific binding to canine IL23)
Canine p40 polypeptide = molecular target: T1, Canine p40 polypeptide (canine, UniProt Q28268 23-329); test: SPR, Biacore 8K
T1 sequence (looked up): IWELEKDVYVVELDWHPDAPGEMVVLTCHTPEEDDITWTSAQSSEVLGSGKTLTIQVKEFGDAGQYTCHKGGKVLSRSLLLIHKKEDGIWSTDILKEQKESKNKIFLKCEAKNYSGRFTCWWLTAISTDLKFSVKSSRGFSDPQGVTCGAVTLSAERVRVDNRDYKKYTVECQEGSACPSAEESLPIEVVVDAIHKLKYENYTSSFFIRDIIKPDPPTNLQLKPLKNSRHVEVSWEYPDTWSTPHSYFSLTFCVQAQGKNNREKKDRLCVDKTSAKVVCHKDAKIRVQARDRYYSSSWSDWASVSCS

binding [1]: binds
B1: Anti-IL23 caninized VL variant V2 / C340 VH (antibody, human IgG1, V domains shown)
VH: EVQLVQSGAEVKKPGESLKISCKGSGYSFTTYWLGWVRQMPGKGLDWIGIMSPVDSDIRYSPSFQGQVTMSVDKSITTAYLQWNSLKASDTAMYYCARRRPGQGYFDFWGQGTLVTVSS
VL: DIVMTQTPLSLSVSPGEPASISCRASQGISSWLAWYLQKAGQSPRLLPYAASSLQSGVPDRFSGSGSGTDFTLRIGRVEAEDAGIYYCQQYNIYPYTFGQGTRLEVR

binding (Canine p40 polypeptide): binds
B2: Chimeric anti-IL23 antibody (clone C340 VL and VH domains fused to canine kappa light chain constant region and canine IgG-B constant region) (antibody, V domains shown)
VH: B1 VH
VL: DIQMTQSPSSLSASVGDRVTITCRASQGISSWLAWYQQKPEKAPKSLIYAASSLQSGVPSRFSGSGSGTDFTLTISSLQPEDFATYYCQQYNIYPYTFGQGTKLEIKR
notes: also called Anti-IL23-VH-VL; Anti-IL23 (full length IgG form)
